{"source": "patent US20050032160A1", "about": "“Cell-based therapies for diabetes mellitus and other glucose intolerant states” (priority 2003, published 2005)", "key": {"pancreatic islet β-cells": {"tested_on": "pancreatic islet β-cells", "assay": "Glucose-stimulated insulin secretion in pancreatic islet β-cells", "type": "cell-based", "conditions": "pancreatic islet β-cells / normal rat islets"}, "832/13 cells [1]": {"tested_on": "832/13 cells", "assay": "Lactate output of 832/13 cells", "type": "cell-based, rat", "conditions": "glucose"}, "832/13 cells [2]": {"tested_on": "832/13 cells", "assay": "Insulin secretion assay (radioimmunoassay) in 832/13 cells", "type": "cell-based, rat", "experimental": "The cell line 832/13 was created from INS-1 insulinoma β-cells as described earlier (Hohmeier et al. (2000) Diabetes 49:424-430). Cells were cultured in RPMI-1640 medium containing 11 mM glucose supplemented with 10% fetal bovine serum, 10 mM HEPES, 2 mM glutamine, 1 mM sodium pyruvate and […] β-mercaptoethanol. Media was routinely changed every second day. 832/13 cells were split to a cell density of 20-30% confluence in 12 well plates. At a cell density of 90%, cells were exposed to virus by adding crude extract directly to the growth media. After 16 hours of transduction, virus containing media was removed and the cells were cultured in fresh media in additional 24 hours before secretion assays. Insulin secretion was assayed in HEPES buffered saline solution (HBSS) (114 mM NaCl, 4.7 mM KCl,1.2 mM KH2PO4, 1.16 mM MgSO4, 20 mM HEPES, 2.5 mM CaCl2, 25.5 mM NaHCO3, pH 7.2 containing 0.2% bovine serum albumin (essentially fatty acid free). Cells were washed in 1 ml of HBSS, preincubated in 1.5 ml of HBSS for 2 hour prior to a 2 hour incubation in the presence of secretagogues as indicated in the figures. The insulin levels were determined by radioimmunoassay with the Coat-A-Count kit (ICN Pharmaceuticals, Costa Mesa, Calif.) and lactate output was determined with a Lactate Reagent kit (Sigma, St. Louis, Mo.) according to protocols outlined by the manufacturer."}}, "note": "Entries after “also recorded” stand apart in the source; their conditions may differ. At least one structure is not confirmed: it was looked up by name or label, or the drawing left a doubt.", "data": [{"smiles": "NC(=O)C(=O)O", "note": "[oxamate]", "values": [{"measurement": "effect on glucose-stimulated insulin secretion", "setting": "pancreatic islet β-cells", "result": "potently inhibits"}, {"measurement": "effect on glucose-stimulated insulin secretion", "setting": "pancreatic islet β-cells; listed as Oxamate", "result": "inhibition of glucose-stimulated insulin secretion"}, {"measurement": "effect on lactate production", "setting": "832/13 cells [1]", "result": "large decrease"}, {"measurement": "effect on glucose-stimulated insulin secretion", "setting": "832/13 cells [2]", "result": "large decrease; also recorded: potently inhibits"}]}]}
